Out of some 360,000 compounds screened, about 7,500 (2.1%) were called active. The shares of active, inactive and inconclusive entries below differ from those in the screen. The call rests on the fitted dose curve; in most records, active means well fitted inhibition curve with a large enough effect; inconclusive means small, poorly fitted or top-dose-only effect, or effect the other way; inactive means flat fitted curve, though single readings scatter. A potency beside an inconclusive call is a rough fit, not a confirmed value.
Assay: Nrf2 qHTS screen for inhibitors; further: nearly all actives have a fitted effect of over 60% in size
Conditions: A549 ARE-Fluc reporter, luciferase luminescence, 18-24 h; activity change, negative = inhibition: at 46 µM (top of the series)
In short: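 A549 ARE_Fluc cells (5000/well, 5% FBS OPTI-MEM) pre-incubated 2 h, then treated with compounds 18-24 h at 37C/5% CO2 in concentration-response. CellTiter-Fluor viability read first; BugLite luciferase luminescence after 15 min at room temperature gives Nrf2 activity.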
With COc1ccc(-c2nc3ccccc3[nH]2)cc1 the Potency was inconclusive: 0.164 µM [activator, full curve].
For COc1ccc(OC)c(/C=N\NC(=O)CSc2nnc(CCCc3ccc(OC)c(C)c3)o2)c1, the Potency was inconclusive: 29.1 µM [falling, single point].
In the case of CC(C)CC(=O)Nc1nnc(S(=O)(=O)N(C)c2ccc(Cl)cc2)s1, the Potency is reported as inconclusive: 18.4 µM [falling, single point].
For Cc1cc(NC(=O)CS(=O)CC(=O)Nc2c(C)cccc2C)ccc1-n1cnnn1 (stereo not given), the Potency was inconclusive: 16.4 µM [falling, single point].
For Cc1ccc(C2(C(F)(F)F)NC(=O)N3CCN=C3S2)cc1 (stereo not given), the Potency was inconclusive: 5.17 µM [falling, partial curve, poor fit].
In the case of COc1cccc(/C=C2\CCC(C3CCCC3)C2=O)c1 (stereo not given), the “activity change, negative = inhibition” value is reported as inactive: 14.5%.
For c1ccc2c(c1)Nc1cc3ccccc3cc1S2, the Potency was inconclusive: 18.4 µM [activator, single point].
With O=C(CC(=O)N/N=C/c1ccc(C(=O)O)cc1)NCCc1ccccc1 the “activity change, negative = inhibition” value was inactive: 2.18%.
For Cc1ccc(/C=C/C(=O)NCCCN2CCN(CCCNC(=O)/C=C/c3ccc(C)o3)CC2)o1, the Potency was inconclusive: 4.61 µM [falling, single point].
For C[C@H]1CC[C@@]2(O[C@H](CCO)C[C@@H](O)[C@@H]2O)O1, the Potency was inconclusive: 1.84 µM [falling, partial curve, poor fit].
For CN(C)CCCN(C(=O)COc1ccc(Cl)cc1)c1nc2cc3c(cc2s1)OCO3, the “activity change, negative = inhibition” value was inactive: -8.84%.
For CC1=CC(C)(C)N(C(=O)CN2C(=O)CCC2=O)c2ccc(C)cc21, the “activity change, negative = inhibition” value was inactive: 6.41%.
In the case of O=C(CNC(=O)c1ccccc1Cl)OCc1cc(=O)n2nc(C3CC3)sc2n1, the Potency is reported as inconclusive: 29.1 µM [activator, single point].
For O=c1[nH]cnc(O)c1C(c1cccc([N+](=O)[O-])c1)c1c(O)nc[nH]c1=O, the “activity change, negative = inhibition” value was inactive: 2.68%.
With O=C(NC1CC1)c1cc2c(F)cccc2s1 the Potency was inconclusive: 18.4 µM [falling, single point].
For Fc1ccc(F)c(Nc2c3c(nc4ccc(Cl)cc24)CCC3)c1, the “activity change, negative = inhibition” value was inactive: 16%.
For CCn1cc(S(=O)(=O)c2ccc(Cl)cc2)c(=O)c2cc(OC)ccc21, the Potency was inconclusive: 16.4 µM [falling, partial curve, poor fit].
For CCN(CC)CCCNC(=O)c1c2c(nc3ccccc13)C(=O)N(C1CCCCC1)C2, the “activity change, negative = inhibition” value was inactive: -6.97%.
In the case of COc1ccc(C(=O)Nc2cc3c(cc2Cl)OCCCO3)cc1, the Potency is reported as inconclusive: 20.6 µM [activator, partial curve].
With N/C(=N\c1nc2ccccc2o1)NC(=O)c1ccccc1NC(=O)c1ccccc1 the Potency was inconclusive: 29.1 µM [falling, single point].
On the % scale 0 is the no-effect control and ±100 the full control effect; potency means the concentration at half of the fitted maximal effect.
